In PubChem BioAssay AID540256 (National Center for Advancing Translational Sciences (NCATS), 2011):
Hit rate of the full screen: of about 300,000 compounds, about 3,700 (1.2%) were called active. This list was built around the results that the source calls inconclusive (neither active nor inactive); the mix of calls is not that of the screen. Calls follow the shape of the full dose curve; tested in HEK293 cells. Potencies of inconclusive entries are doubtful fits and often do not repeat.
Potency is read from the fitted curve at half-maximal effect.

Test: qHTS for Inhibitors of binding or entry into cells for Lassa Virus; also: nearly all actives have a fitted effect of over 50% in size
Conditions: Lassa virus pseudotype entry inhibition, cell reporter; series mostly up to 37.9 µM
With `O=C(CSCC(=O)NC1CC1)Nc1ccc2ccccc2c1` the Potency was “inactive”.
For `CCCCNC(=O)CCNS(=O)(=O)c1ccc(Br)cc1`, the Potency was inconclusive: 2.06 µM [inhibitor, partial curve, poor fit].
For `O=C1c2ccccc2-c2nc3ccccc3cc21`, the Potency was inconclusive: 0.708 µM [activator, single point].
For `CN(C)CCNc1ncnc2c1sc1nc(N3CCCC3)c3c(c12)CC(C)(C)OC3`, the Potency was inconclusive: 14.1 µM [inhibitor, single point].
For `COc1cc(OC)c(NC(=O)c2c(C)nn(-c3ccc(C)cc3)c2-n2cccc2)cc1Cl`, the Potency was “inactive”.
In the case of `Cc1cc(C)nc(NC(=S)Nc2cccc(F)c2)c1`, the Potency is reported as “inactive”.
For `O=C(/C=C/c1ccc(Cl)cc1)NC(=S)Nc1ccc(N2CCOCC2)c(Cl)c1`, the Potency was inconclusive: 35.5 µM [inhibitor, single point].
For `C[C@H]1COc2cccc(N3CCCC3)c2S(=O)(=O)N1`, the Potency was “inactive”.
For `COc1cccc(C(=O)NN2C(=S)N(c3ccccc3)C(=O)C2CC(N)=O)c1` (stereo unspecified), the Potency was inconclusive: 1.26 µM [activator, partial curve, poor fit].
In the case of `CCOC(=O)C1CCN(S(=O)(=O)c2cc(-c3onc(C)c3C)ccc2OC)CC1`, the Potency is reported as “inactive”.
In the case of `CCOC(=O)c1csc(NC(=O)c2ccc(N3C(=O)CCC3=O)cc2)n1`, the Potency is reported as “inactive”.
For `Cc1cc(C)n(S(=O)(=O)/C=C/c2ccccc2)n1`, the Potency was inconclusive: 29.1 µM [inhibitor, single point].
For `CC(C)c1ccc(CN2C(=O)c3ccccc3S2(=O)=O)cc1`, the Potency was inconclusive: 4.47 µM [inhibitor, partial curve, poor fit].
With `Cc1n[nH]c(=O)c2c(NC(=O)COC(=O)COc3cccc(Br)c3)oc(C)c12` the Potency was “inactive”.
In the case of `CSc1nsc(N/N=C/c2ccccc2)c1C#N`, the Potency is reported as “inactive”.
In the case of `c1ccc2nc3ccccc3nc2c1`, the Potency is reported as “inactive”.
In the case of `COc1ccc(C(=O)Nc2cccc(C(C)=O)c2)c(OC)c1OC`, the Potency is reported as “inactive”.
In the case of `CC(Sc1nnc(C2CC2)n1N)C(=O)NC1CCCCC1C` (stereo unspecified), the Potency is reported as “inactive”.
For `CC(=O)C1=C(C)NC(=O)NC1c1ccc2c(c1)OCO2` (stereo unspecified), the Potency was inconclusive: 0.501 µM [activator, full curve, poor fit].
For `CC1(C)CC(=O)C2=C(C1)N=C1SCCC(=O)N1C2c1ccccc1` (stereo unspecified), the Potency was inconclusive: 1.46 µM [activator, partial curve, poor fit].
With `COCCn1nnnc1C(c1ccccn1)N1CCN(c2cccc(C)c2C)CC1` (stereo unspecified) the Potency was “inactive”.
For `CCNc1ncnc2c1cnn2C1CCCCO1` (stereo unspecified), the Potency was inconclusive: 17.8 µM [activator, single point].
In the case of `CC(=O)N1CCCc2cc(S(=O)(=O)N3CCCCC3)ccc21`, the Potency is reported as “inactive”.
For `CCOc1ccccc1CNC(=O)c1cc2c(=O)n(Cc3ccccc3)ccc2nc1C`, the Potency was inconclusive: 35.5 µM [inhibitor, single point].
For `Clc1ccc(-c2cn3cccnc3n2)cc1Cl`, the Potency was inconclusive: 20.6 µM [activator, partial curve, poor fit].
For `COc1ccc(CNc2ccc([N+](=O)[O-])cn2)cc1`, the Potency was inconclusive: 6.31 µM [activator, single point].
In the case of `Cc1cccc(C)c1NC(=O)C(C)Sc1n[nH]c(-c2ccncc2)n1` (stereo unspecified), the Potency is reported as “inactive”.
With `COc1ccc(-c2csc(N(CCCN(C)C)C(=O)c3ccccc3Cl)n2)cc1` the Potency was inconclusive: 14.1 µM [inhibitor, partial curve, poor fit].
For `O=C(CSc1ccc(-c2cccnc2)nn1)N1CCCC1`, the Potency was “inactive”.
In the case of `CCN(CC)S(=O)(=O)c1ccc(/C=C/C(=O)Nc2ccccc2N2CCOCC2)cc1`, the Potency is reported as inconclusive: 35.5 µM [inhibitor, single point].
In the case of `Cn1c(C(=O)OCC(=O)NCc2ccc(F)cc2)cc2occc21`, the Potency is reported as “inactive”.
In the case of `COc1ccc([N+](=O)[O-])cc1N(CC(O)CN(C)C)S(=O)(=O)c1ccc(C)cc1` (stereo unspecified), the Potency is reported as inconclusive: 18.3 µM [inhibitor, single point].
For `Cc1ccc(Cl)cc1N1CCN(C(=O)C2CCCN(S(=O)(=O)c3ccc(Br)s3)C2)CC1` (stereo unspecified), the Potency was inconclusive: 10 µM [inhibitor, partial curve].
With `O=C(COC(=O)c1n[nH]c2ccccc12)NC(=O)NC12CC3CC(CC(C3)C1)C2` the Potency was inconclusive: 20.6 µM [inhibitor, partial curve, poor fit].
With `CCCOc1ccc(C(=O)N2CCN(Cc3ccc4c(c3)OCO4)CC2)cc1` the Potency was inconclusive: 3.16 µM [inhibitor, full curve].
For `CCN(CC)c1ccc(Nc2cc3n(c(=O)n2)CCc2cc(OC)c(OC)cc2-3)cc1`, the Potency was inconclusive: 1.58 µM [inhibitor, full curve, poor fit].
For `CC(=O)Nc1cc(C(=O)N2CCOCC2)ccc1S(=O)(=O)c1ccc(C)cc1`, the Potency was “inactive”.
With `O=C(CN1CCC(O)(c2ccc3c(c2)OCO3)CC1)OC1CCCCC1` the Potency was “inactive”.
For `CC(=O)c1cnc2c(-c3ccccc3)c(C(F)(F)F)nn2c1C`, the Potency was inconclusive: 1.12 µM [inhibitor, single point].
For `CCOc1ccc(-c2nnc3sc(-c4ccccc4OC)nn23)cc1`, the Potency was inconclusive: 6.51 µM [activator, single point].
For `CCOc1ccc(C2C(C#N)=C(N)Oc3nc[nH]c(=O)c32)cc1` (stereo unspecified), the Potency was inconclusive: 3.55 µM [activator, single point].
With `COc1ccc(-n2c(SC(C)C(=O)Nc3ncc(Cl)cc3Cl)nc3ccccc32)cc1` (stereo unspecified) the Potency was active: 0.251 µM.
For `O=C(CCl)Nc1c(C(=O)Nc2ccc3c(c2)OCCO3)oc2ccccc12`, the Potency was inconclusive: 10 µM [inhibitor, partial curve].
For `CSc1ccc(NC(=O)Nc2cccn(Cc3ccccc3)c2=O)cc1`, the Potency was inconclusive: 35.5 µM [inhibitor, single point].
With `O=S(=O)(c1ccc(Cl)cc1)N1CCN(Cc2c[nH]c3ccccc23)CC1` the Potency was “inactive”.
With `Brc1ccc(N=Nc2ccc3ccccc3n2)cc1` the Potency was active: 1.12 µM.
With `CC[n+]1c(/C=C/c2cc([N+](=O)[O-])ccc2O)ccc2ccccc21` the Potency was inconclusive: 6.31 µM [inhibitor, partial curve, poor fit].
In the case of `CSc1ccccc1-c1nnc(-c2ccc(Cl)c(Cl)c2)o1`, the Potency is reported as “inactive”.
In the case of `CCCN(Cc1nnc(-c2ccccc2Cl)o1)C(=O)c1ccc(C)c(S(=O)(=O)N2CCOCC2)c1`, the Potency is reported as “inactive”.
For `Cc1ccc(-c2noc(CNc3ccccc3)n2)cc1`, the Potency was “inactive”.
With `COc1ccc(CCNC(=O)C2=C(C)C(=O)OC23CCCCC3)c(OC)c1OC` the Potency was “inactive”.
With `CCN(CC)S(=O)(=O)c1ccc2c(c1)nc(CN(C)C(=O)c1cccc(Cl)c1)n2C` the Potency was “inactive”.
For `CCn1c(=O)c2cc(C(=O)N3CCN(c4cccc(Cl)c4)CC3)sc2c2ccccc21`, the Potency was “inactive”.
In the case of `CCC(=O)Nc1cccc(-n2nnnc2SCC(=O)N2CCCCC2)c1`, the Potency is reported as “inactive”.
With `CCc1ccc2[nH]c3nc(N/N=C/c4ccc(O)cc4O)nnc3c2c1` the Potency was inconclusive: 2.51 µM [inhibitor, full curve, poor fit].
With `Cc1ccc2cc(C(c3nnnn3Cc3ccccc3)N3CCc4ccccc43)c(=O)[nH]c2c1C` (stereo unspecified) the Potency was “inactive”.
With `COc1cc(CN(C(=O)c2ccccc2[N+](=O)[O-])c2ccccn2)cc(OC)c1OC` the Potency was “inactive”.
With `O=C(CSc1nnc2c(n1)[nH]c1ccccc12)NC1CCCCC1` the Potency was inconclusive: 3.16 µM [inhibitor, full curve].
With `COc1ccccc1C1CC(c2cccs2)=Nc2ccccc2S1` (stereo unspecified) the Potency was inconclusive: 23.1 µM [activator, partial curve, poor fit].
In the case of `O=C(CCCCn1c(=O)c2ccccc2n(CC(=O)NC2CCCC2)c1=O)NC1CCCC1`, the Potency is reported as “inactive”.
With `COc1cccc(N2CCN(C(=O)c3cccc(NC(=O)c4nsc5ccccc45)c3)CC2)c1` the Potency was inconclusive: 17.8 µM [inhibitor, single point].
In the case of `CCCc1nc2c(C)cc(C)cc2c(N)c1CC`, the Potency is reported as “inactive”.
In the case of `COc1ccccc1Cc1noc(-c2cc(Cl)ccc2OC)n1`, the Potency is reported as “inactive”.
For `CCC(=O)c1ccc(O)cc1`, the Potency was “inactive”.
In the case of `COCCCNC(=O)C1CCN(C(=O)c2cc3sccc3n2Cc2ccc(F)cc2)CC1`, the Potency is reported as “inactive”.
For `O=C(NCc1ccco1)c1noc2c1CCCC2`, the Potency was inconclusive: 1.3 µM [activator, partial curve, poor fit].
For `C=CCNCCCOc1ccc(C(C)(C)c2ccccc2)cc1`, the Potency was inconclusive: 11.2 µM [inhibitor, partial curve, poor fit].
For `CC(C)CCNC(=O)COc1ccc(C(=O)c2ccccc2)cc1`, the Potency was inconclusive: 35.5 µM [inhibitor, single point].
For `COc1ccccc1NC(=O)C1=C(C)N(c2ccccc2)C(=S)NC1c1cccc(C(F)(F)F)c1` (stereo unspecified), the Potency was inconclusive: 20.6 µM [inhibitor, single point].
With `O=Cc1cnc2ccccc2c1-c1ccccc1` the Potency was inconclusive: 10 µM [inhibitor, partial curve, poor fit].
With `CSCCC(NC(=O)c1ccccc1)C(=O)N1CC=C(c2ccccc2)CC1` (stereo unspecified) the Potency was active: 11.2 µM.
With `Cc1ccc(C(C)C)c(OCCNC(=O)c2cncc(Br)c2)c1` the Potency was inconclusive: 17.8 µM [inhibitor, single point].
For `CCC1CN(S(=O)(=O)c2cc(-c3cc(C)no3)ccc2OC)c2cc(C)ccc2O1` (stereo unspecified), the Potency was “inactive”.
For `COc1ccc(N(CCCN2C(=O)c3cccc4cccc(c34)C2=O)C(=O)c2cccnc2)cc1`, the Potency was inconclusive: 25.1 µM [inhibitor, single point].
In the case of `CC(=O)c1c(C)n(CC(=O)NCc2ccc3c(c2)OCO3)c2ccccc12`, the Potency is reported as “inactive”.
With `CCCCCCn1c(=O)[nH]c2nc3cc(N)c(C)cc3nc2c1=O` the Potency was inconclusive: 20 µM [inhibitor, single point].
